In the supplement of paper PMC12067093, “Discovery and optimisation of a covalent ligand for TRIM25 and its application to targeted protein ubiquitination” (Chemical Science, 2025):
Some of the results follow.

Sequences of proteins named here, by UniProt entry; tags and fusion partners are left off. A change or cut given only in a name is not applied to a line headed by its entry.
UniProt Q6ZS11: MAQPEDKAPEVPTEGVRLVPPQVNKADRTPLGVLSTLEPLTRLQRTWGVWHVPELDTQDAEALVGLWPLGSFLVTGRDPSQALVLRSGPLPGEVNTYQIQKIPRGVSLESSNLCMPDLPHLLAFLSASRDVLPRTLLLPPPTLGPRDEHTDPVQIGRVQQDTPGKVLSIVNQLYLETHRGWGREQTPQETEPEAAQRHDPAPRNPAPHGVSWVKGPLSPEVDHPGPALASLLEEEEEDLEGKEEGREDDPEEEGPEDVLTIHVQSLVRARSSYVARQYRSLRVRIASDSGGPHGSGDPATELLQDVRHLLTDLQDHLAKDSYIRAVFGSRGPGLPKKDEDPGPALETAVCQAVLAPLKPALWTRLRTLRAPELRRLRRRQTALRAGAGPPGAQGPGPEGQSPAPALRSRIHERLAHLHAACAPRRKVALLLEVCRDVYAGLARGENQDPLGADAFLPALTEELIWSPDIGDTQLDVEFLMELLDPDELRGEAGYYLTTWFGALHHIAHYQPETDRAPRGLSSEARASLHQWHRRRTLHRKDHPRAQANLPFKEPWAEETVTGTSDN
UniProt Q13129: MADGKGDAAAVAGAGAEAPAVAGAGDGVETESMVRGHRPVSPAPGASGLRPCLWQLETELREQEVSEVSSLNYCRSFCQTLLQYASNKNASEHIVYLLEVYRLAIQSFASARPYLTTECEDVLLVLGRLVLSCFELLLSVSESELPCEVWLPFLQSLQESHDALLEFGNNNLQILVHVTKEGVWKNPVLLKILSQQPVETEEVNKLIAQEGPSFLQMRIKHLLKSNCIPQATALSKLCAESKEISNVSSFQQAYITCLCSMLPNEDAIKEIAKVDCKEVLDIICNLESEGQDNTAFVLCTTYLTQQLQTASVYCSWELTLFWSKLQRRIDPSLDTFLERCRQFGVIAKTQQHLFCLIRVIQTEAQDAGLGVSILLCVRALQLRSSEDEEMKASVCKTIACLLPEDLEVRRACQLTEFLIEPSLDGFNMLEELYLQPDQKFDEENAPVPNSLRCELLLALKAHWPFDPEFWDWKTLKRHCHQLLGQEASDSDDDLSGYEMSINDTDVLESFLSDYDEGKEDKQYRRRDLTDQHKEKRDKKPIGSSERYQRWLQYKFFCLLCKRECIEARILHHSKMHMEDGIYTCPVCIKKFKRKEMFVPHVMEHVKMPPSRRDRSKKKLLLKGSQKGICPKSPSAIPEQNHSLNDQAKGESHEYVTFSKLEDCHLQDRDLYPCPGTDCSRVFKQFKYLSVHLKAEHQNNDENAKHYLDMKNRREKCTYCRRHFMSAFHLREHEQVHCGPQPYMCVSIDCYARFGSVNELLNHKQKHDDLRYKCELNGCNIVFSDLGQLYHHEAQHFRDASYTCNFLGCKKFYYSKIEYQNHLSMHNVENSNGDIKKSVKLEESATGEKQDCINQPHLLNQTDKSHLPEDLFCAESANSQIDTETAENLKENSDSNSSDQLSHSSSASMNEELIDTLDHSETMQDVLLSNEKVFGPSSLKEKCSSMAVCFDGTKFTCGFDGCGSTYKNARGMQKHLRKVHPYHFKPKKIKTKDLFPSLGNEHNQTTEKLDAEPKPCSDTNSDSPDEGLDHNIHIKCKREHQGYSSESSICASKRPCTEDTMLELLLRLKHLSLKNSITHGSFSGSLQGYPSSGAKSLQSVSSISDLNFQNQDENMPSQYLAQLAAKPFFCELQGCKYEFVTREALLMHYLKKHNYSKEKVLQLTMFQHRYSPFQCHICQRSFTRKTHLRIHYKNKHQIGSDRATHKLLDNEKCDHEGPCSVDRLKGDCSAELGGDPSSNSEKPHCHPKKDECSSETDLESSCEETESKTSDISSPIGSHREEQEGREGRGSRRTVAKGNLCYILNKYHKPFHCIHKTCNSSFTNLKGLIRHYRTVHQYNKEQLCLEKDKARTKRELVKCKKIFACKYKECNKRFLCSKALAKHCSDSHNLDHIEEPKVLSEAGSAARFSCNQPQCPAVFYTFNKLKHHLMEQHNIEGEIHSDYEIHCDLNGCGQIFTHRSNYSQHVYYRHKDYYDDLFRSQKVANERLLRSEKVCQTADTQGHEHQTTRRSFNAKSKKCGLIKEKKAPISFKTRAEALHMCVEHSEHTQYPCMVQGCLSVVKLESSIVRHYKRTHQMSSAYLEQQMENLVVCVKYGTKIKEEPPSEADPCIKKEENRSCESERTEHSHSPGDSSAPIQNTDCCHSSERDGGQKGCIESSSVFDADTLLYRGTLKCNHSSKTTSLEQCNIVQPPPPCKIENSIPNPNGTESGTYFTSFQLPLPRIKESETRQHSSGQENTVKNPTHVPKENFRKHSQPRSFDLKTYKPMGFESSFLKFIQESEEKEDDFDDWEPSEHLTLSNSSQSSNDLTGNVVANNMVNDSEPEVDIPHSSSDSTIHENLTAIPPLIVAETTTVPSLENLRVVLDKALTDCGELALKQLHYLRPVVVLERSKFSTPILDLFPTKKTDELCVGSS
UniProt P40938, whole entry, looked up: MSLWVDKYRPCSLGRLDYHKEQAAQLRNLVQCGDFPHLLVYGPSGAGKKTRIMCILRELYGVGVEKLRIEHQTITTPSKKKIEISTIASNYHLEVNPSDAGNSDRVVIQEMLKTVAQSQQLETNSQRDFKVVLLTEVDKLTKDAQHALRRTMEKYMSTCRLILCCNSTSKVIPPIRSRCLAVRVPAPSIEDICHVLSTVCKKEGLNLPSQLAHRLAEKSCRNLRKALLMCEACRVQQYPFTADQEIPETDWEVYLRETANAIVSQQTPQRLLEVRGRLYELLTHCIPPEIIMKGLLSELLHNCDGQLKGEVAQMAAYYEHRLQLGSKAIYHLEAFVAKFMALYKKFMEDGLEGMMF
UniProt Q6NUM9: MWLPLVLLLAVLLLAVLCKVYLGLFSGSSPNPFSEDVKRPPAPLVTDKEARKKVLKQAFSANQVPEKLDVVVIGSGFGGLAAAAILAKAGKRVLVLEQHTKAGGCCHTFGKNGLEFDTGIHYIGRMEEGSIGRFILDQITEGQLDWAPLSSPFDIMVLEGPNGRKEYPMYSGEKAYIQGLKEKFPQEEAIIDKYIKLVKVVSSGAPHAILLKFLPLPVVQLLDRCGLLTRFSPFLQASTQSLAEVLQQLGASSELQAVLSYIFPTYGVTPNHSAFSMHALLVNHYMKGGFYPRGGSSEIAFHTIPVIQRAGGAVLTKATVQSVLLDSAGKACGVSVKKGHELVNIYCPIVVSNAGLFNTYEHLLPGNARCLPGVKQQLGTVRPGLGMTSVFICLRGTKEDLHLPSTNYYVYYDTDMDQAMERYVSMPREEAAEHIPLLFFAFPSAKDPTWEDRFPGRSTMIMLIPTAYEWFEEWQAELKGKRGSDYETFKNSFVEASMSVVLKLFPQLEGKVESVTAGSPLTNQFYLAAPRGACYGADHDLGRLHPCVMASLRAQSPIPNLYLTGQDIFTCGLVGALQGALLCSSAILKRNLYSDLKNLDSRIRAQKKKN
UniProt P35249, whole entry, looked up: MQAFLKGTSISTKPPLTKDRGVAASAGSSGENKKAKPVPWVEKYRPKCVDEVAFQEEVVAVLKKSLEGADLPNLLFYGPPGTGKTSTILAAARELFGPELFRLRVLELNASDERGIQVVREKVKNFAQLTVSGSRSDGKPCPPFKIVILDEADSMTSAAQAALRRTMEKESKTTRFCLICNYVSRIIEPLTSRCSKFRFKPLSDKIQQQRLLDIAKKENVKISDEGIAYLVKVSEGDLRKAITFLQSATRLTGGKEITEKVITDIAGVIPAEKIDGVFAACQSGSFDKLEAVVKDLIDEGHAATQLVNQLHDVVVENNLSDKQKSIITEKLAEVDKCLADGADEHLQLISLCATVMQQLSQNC
UniProt O43566: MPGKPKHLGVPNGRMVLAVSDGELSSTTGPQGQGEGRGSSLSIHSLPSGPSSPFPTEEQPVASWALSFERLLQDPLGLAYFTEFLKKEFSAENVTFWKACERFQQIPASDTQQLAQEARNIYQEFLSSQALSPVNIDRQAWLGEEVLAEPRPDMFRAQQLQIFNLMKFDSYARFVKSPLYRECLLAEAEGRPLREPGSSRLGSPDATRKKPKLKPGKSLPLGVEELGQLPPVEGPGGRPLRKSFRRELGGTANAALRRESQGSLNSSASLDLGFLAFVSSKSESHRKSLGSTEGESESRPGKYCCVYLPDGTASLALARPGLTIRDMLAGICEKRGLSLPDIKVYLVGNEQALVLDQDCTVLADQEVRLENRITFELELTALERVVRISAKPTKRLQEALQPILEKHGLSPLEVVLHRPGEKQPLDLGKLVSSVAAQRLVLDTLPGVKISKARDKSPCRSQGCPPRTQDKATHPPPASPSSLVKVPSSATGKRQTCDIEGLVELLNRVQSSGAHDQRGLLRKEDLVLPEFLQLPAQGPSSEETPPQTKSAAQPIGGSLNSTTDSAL
UniProt P84095: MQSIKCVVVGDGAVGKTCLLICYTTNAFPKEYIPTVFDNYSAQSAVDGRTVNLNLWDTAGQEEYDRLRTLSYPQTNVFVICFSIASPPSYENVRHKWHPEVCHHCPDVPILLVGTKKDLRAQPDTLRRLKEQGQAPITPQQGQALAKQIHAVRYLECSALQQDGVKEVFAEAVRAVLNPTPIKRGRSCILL
UniProt Q9H920: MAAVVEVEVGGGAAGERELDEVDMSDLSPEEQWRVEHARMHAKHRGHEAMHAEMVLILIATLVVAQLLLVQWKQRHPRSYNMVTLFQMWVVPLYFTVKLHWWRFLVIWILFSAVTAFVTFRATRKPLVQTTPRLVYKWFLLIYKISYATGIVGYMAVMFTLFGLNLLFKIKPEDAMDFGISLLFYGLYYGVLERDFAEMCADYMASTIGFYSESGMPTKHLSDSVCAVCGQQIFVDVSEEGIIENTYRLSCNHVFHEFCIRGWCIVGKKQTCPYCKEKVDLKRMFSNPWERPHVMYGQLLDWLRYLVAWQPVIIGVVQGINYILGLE
UniProt Q9H871: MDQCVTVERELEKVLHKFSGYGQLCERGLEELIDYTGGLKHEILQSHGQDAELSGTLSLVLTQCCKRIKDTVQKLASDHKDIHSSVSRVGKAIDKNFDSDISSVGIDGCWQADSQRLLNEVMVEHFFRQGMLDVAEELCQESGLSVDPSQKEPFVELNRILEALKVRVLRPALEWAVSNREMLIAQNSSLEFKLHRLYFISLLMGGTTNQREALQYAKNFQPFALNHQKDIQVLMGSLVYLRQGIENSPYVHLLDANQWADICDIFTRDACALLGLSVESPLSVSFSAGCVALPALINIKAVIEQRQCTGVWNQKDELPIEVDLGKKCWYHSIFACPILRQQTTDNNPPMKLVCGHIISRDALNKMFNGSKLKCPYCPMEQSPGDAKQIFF
UniProt Q96D71: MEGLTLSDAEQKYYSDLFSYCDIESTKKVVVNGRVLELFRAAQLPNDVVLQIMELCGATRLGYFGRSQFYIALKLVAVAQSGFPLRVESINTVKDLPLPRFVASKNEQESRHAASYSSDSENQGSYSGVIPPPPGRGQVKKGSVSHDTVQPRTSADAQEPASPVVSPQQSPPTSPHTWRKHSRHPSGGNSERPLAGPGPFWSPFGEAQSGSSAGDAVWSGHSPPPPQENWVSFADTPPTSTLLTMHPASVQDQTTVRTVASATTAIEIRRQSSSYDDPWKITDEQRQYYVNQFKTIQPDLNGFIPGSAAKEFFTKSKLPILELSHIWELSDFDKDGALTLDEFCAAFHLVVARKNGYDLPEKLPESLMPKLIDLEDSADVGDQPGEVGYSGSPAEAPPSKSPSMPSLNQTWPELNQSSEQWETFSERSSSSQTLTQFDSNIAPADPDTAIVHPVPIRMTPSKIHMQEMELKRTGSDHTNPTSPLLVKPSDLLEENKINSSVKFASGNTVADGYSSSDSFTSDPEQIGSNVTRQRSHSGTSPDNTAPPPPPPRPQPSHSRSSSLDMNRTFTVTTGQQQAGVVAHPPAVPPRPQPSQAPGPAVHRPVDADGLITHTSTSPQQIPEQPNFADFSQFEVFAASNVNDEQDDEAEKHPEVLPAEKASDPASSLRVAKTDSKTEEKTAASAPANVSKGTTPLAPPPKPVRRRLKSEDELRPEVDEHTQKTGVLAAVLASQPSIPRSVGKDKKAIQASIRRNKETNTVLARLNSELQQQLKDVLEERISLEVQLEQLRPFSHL
UniProt Q92546: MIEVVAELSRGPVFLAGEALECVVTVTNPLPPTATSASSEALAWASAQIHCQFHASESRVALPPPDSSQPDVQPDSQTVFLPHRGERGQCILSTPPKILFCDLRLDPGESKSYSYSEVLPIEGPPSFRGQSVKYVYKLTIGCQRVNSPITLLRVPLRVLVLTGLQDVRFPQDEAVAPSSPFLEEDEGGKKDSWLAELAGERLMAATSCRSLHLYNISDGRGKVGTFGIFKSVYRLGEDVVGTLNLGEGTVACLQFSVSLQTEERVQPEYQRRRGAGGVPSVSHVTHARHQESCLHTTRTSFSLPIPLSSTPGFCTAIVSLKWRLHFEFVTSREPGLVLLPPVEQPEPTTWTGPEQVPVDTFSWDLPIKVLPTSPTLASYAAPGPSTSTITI

What follows are targets tested with Cc1cc(ccc1-c1ccccc1)C(=O)N1CCCN(CC1)C(=O)CCl [compound 10] (assay: probe-labelled cysteine peptide fold change vs DMSO (competition) (log2 fold change); higher = less target engagement (more negative = stronger competition)). Settings: 50 µM; THP-1; incubation time: 4 h.
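Note: competitive profiling in live THP-1 cells: cysteine peptides tagged with an iodoacetamide desthiobiotin (IA-DTB) probe, intensity after compound treatment relative to DMSO-treated cells.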

| Target | probe-labelled cysteine peptide fold change |
| --- | --- |
| RINL_Q6ZS11_421_LAHLHAACAPR (UniProt Q6ZS11) | 0.0735 |
| RLF_Q13129_584+587_MHMEDGIYTCPVCIK (UniProt Q13129) | -0.342 |
| RLF_Q13129_948_CSSMAVCFDGTK (UniProt Q13129) | -0.843 |
| RNF126_Q9BV68_32_CESGFIEELPEETR (UniProt Q9BV68) | -0.378 |
| RFC3_P40938_230+233_ALLMCEACR (UniProt P40938) | -0.288 |
| RETSAT_Q6NUM9_370_CLPGVK (UniProt Q6NUM9) | -0.603 |
| RFC3_P40938_193+200_VPAPSIEDICHVLSTVCK (UniProt P40938) | -0.0582 |
| RHOT2_Q8IXI1_504_SFAHCASVYK (UniProt Q8IXI1) | -0.0219 |
| RFC4_P35249_48_CVDEVAFQEEVVAVLK (UniProt P35249) | 0.579 |
| RGS19_P49795_123_TEYSEENMLFWLACEELK (UniProt P49795) | 0.179 |
| RGS14_O43566_496_QTCDIEGLVELLNR (UniProt O43566) | -0.994 |
| RMND1_Q9NWS8_409_LQHCMELTDLMR (UniProt Q9NWS8) | 0.379 |
| RHOG_P84095_105_WHPEVCHHCPDVPILLVGTKK (UniProt P84095) | -0.622 |
| RNF121_Q9H920_251_LSCNHVFHEFCIR (UniProt Q9H920) | -0.0297 |
| RMND5A_Q9H871_328_CWYHSIFACPILR (UniProt Q9H871) | 0.227 |
| REPS1_Q96D71_56_AAQLPNDVVLQIMELCGATR (UniProt Q96D71) | -0.081 |
| RMND5A_Q9H871_354_LVCGHIISR (UniProt Q9H871) | -0.213 |
| RGP1_Q92546_293_HQESCLHTTR (UniProt Q92546) | 0.109 |
| RMND5A_Q9H871_109_NFDSDISSVGIDGCWQADSQR (UniProt Q9H871) | 0.0723 |
| RHOG_P84095_102_WHPEVCHHCPDVPILLVGTK (UniProt P84095) | 0.0491 |
| RIC1_Q4ADV7_904_FITEFPLFLQTVVHCAR (UniProt Q4ADV7) | 0.146 |

An excerpt of these results, as tab-separated lines.
Target	probe-labelled cysteine peptide fold change
RINL_Q6ZS11_421_LAHLHAACAPR (UniProt Q6ZS11)	0.0735
RLF_Q13129_584+587_MHMEDGIYTCPVCIK (UniProt Q13129)	-0.342
